Measured values: the supplement of paper PMC10849652
This is one part of the list.

Amino acid sequences for entries named in this document (tags omitted). A change or cut given only in a name is not applied to a line headed by its entry.
UniProt Q8TF74: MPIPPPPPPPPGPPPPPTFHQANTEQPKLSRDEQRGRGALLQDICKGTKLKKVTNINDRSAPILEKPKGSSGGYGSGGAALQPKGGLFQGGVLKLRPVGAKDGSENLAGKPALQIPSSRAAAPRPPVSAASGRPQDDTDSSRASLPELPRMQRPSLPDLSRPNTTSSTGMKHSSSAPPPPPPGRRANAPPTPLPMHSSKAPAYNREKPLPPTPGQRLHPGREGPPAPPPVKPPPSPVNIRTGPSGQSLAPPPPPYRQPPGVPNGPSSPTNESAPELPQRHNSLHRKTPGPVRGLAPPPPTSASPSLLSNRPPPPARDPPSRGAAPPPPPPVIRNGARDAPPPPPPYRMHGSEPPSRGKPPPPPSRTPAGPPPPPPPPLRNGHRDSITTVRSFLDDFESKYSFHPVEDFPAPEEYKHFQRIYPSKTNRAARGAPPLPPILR
UniProt Q9Y484: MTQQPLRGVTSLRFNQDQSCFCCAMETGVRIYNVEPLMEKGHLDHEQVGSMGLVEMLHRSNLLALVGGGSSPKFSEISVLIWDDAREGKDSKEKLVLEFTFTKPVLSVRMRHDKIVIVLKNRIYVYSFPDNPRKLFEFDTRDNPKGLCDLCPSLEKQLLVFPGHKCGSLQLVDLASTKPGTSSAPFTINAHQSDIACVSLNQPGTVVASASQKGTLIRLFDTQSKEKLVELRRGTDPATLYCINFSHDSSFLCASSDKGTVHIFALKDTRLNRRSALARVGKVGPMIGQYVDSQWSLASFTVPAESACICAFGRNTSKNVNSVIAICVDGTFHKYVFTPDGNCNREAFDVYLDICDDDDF
UniProt Q9H6R7: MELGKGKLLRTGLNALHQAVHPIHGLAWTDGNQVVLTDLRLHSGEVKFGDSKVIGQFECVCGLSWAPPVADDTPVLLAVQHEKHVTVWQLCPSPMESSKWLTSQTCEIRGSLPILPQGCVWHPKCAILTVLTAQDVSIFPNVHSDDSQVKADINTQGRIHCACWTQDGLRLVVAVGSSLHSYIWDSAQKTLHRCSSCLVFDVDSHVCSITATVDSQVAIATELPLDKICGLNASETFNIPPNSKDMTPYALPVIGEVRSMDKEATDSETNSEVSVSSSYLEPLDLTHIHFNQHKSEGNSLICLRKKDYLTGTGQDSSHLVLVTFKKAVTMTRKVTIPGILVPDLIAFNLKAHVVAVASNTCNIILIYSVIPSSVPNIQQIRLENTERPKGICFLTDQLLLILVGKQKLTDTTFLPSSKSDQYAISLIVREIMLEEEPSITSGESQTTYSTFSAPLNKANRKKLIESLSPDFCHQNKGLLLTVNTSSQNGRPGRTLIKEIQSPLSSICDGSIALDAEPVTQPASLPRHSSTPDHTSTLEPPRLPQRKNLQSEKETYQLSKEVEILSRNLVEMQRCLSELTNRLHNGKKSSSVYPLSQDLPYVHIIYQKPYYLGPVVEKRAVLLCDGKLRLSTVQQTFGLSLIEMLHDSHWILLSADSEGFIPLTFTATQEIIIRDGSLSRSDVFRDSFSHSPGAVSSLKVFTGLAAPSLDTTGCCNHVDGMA
UniProt Q969T9: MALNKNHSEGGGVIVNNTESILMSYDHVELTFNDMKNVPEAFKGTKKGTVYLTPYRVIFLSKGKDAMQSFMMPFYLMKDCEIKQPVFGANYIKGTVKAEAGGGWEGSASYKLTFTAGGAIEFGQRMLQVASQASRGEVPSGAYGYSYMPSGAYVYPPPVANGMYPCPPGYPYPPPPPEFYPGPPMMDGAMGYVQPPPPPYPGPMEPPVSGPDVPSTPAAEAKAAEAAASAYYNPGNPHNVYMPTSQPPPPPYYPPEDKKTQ
UniProt Q9H269: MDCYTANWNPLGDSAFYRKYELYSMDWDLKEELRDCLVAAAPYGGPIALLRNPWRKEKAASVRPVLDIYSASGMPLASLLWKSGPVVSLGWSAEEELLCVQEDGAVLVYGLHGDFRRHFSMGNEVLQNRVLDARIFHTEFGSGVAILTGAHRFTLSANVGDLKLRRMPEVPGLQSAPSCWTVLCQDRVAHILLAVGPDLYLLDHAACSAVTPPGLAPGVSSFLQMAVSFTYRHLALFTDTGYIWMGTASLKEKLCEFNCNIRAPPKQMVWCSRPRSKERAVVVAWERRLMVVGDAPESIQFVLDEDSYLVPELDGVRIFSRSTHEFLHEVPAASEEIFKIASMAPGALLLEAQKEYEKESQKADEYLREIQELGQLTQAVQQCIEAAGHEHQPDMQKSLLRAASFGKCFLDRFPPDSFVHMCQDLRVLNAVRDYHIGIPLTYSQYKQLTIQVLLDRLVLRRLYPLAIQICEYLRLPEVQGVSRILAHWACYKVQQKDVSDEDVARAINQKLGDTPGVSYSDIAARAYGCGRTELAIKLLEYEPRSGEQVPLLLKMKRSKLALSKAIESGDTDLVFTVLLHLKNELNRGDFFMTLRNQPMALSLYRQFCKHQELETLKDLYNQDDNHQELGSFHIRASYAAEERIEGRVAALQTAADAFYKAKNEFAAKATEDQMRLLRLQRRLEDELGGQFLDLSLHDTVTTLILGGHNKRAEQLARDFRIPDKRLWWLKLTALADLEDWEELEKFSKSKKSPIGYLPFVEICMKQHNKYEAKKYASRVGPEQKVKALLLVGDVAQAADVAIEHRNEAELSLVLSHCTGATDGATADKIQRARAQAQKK
UniProt Q9P1Q0: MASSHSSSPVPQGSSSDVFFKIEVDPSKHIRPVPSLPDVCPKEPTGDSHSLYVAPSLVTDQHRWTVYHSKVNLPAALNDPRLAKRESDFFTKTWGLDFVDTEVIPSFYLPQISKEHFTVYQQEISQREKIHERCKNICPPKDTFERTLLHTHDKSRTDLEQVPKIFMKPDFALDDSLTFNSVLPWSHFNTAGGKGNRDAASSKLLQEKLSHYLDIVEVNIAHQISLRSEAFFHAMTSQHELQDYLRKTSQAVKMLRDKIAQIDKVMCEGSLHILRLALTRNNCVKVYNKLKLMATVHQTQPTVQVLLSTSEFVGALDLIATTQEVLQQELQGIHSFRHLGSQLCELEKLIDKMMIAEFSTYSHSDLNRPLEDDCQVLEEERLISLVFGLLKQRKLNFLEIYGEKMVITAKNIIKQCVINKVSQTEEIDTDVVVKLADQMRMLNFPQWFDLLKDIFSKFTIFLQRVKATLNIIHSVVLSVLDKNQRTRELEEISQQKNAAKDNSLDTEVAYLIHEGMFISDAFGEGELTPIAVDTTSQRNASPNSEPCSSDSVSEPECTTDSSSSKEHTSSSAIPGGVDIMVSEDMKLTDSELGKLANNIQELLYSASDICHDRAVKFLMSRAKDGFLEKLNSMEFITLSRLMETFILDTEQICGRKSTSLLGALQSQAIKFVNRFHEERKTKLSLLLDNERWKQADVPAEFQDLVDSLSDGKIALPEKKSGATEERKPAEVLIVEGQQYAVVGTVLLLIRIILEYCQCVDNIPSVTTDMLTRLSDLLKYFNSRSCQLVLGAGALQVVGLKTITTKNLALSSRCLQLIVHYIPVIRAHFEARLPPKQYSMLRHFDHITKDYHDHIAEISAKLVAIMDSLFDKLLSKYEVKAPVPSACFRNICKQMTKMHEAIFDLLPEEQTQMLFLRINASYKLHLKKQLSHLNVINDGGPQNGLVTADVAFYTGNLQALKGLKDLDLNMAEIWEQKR
UniProt Q9H6Y2: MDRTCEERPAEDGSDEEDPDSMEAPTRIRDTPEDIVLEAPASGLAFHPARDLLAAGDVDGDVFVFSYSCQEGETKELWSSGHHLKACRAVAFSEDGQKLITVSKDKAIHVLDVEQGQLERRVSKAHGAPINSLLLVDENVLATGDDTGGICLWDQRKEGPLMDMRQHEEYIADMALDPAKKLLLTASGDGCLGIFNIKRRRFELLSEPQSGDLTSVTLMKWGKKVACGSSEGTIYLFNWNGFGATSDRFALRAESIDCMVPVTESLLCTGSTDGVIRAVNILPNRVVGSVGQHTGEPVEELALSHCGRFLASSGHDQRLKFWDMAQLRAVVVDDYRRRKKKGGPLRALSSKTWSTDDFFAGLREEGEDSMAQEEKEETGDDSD
UniProt O75083: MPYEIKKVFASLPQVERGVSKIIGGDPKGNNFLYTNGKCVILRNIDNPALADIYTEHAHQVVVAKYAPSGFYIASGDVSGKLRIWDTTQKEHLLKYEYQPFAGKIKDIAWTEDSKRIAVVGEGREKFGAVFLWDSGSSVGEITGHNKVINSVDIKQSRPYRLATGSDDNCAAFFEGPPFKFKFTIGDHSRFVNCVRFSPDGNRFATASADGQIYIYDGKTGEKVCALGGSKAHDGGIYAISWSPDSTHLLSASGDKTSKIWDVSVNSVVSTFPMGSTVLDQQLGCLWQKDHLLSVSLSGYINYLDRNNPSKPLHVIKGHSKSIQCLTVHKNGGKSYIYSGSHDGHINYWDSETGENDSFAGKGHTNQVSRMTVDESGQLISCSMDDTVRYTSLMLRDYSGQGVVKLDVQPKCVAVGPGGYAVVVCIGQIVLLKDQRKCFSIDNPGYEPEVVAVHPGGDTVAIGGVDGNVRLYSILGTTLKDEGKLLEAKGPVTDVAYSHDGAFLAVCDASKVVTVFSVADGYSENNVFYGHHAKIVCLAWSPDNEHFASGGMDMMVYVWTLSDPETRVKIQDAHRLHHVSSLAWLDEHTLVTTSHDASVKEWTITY
UniProt Q9UK41: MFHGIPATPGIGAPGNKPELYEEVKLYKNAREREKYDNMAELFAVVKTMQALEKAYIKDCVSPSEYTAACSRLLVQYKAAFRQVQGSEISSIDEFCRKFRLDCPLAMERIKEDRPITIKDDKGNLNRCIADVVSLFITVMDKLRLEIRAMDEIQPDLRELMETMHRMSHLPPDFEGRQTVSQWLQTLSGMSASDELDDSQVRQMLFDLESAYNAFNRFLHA
UniProt Q9NZC7: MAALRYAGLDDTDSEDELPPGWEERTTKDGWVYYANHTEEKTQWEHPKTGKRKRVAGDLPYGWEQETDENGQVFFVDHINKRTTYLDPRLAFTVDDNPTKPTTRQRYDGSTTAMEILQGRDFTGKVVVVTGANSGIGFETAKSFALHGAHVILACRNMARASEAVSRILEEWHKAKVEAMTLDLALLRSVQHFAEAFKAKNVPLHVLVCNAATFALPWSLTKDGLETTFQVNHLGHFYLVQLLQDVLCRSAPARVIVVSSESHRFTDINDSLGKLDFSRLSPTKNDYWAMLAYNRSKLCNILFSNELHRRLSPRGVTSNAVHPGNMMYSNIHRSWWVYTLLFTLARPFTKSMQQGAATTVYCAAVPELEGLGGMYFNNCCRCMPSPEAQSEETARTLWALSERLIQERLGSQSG
UniProt Q8NEZ3: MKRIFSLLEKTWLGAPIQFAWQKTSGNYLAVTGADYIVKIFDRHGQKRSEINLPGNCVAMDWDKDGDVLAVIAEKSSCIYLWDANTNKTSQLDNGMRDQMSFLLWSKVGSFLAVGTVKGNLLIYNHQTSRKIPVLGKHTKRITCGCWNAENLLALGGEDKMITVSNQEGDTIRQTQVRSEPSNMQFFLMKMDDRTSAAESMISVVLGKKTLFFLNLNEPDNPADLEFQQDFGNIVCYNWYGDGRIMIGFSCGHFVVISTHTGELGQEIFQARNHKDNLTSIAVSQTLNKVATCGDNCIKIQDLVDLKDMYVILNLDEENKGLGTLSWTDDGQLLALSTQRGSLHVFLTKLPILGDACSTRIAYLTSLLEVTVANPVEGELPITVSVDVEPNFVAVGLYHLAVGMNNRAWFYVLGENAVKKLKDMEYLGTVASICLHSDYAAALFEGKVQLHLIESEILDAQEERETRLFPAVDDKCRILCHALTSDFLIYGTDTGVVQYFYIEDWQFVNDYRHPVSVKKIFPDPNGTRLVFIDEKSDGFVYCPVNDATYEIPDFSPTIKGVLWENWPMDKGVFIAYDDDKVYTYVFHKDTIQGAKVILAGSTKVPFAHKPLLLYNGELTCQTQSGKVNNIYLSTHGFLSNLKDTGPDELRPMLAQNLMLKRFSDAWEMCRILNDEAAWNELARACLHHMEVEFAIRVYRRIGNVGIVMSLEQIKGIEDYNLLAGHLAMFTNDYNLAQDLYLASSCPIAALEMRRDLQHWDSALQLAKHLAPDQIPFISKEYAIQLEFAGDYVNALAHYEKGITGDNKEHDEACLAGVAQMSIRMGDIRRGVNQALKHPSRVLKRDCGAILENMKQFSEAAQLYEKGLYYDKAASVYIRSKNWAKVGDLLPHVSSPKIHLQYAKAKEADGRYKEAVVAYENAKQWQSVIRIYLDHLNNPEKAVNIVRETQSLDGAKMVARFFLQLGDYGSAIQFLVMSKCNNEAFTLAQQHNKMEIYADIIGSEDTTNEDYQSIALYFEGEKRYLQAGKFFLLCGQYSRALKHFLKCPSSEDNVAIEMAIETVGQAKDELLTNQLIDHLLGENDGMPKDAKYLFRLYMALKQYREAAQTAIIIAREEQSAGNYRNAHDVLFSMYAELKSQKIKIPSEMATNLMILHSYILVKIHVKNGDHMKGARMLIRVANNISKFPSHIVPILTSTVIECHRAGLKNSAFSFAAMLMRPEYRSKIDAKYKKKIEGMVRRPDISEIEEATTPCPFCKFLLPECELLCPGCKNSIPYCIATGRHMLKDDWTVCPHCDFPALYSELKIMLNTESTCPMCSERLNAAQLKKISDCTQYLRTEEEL

What was measured:
Experiment in all cases: log2 fold change, soluble protein after heating vs DMSO (PISA); higher = thermal stabilisation; K562 lysate, 10 uM; active = over 0.2 and 3.5 SD of the protein, either way, in both replicates (recomputed)
[1] = compound: CN1CC[C@H](c2c(O)cc(O)c3c(=O)cc(-c4ccccc4Cl)oc23)[C@H](O)C1 [alvocidib]
In short: (§1)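 Quantification was by TMTpro 16plex LC-MS/MS with equalised channel sums, applied to the supernatant after 21,000xg for 90 min. Samples were crude K562 extract at 1 mg/mL protein in PBS pH 7.4 with 1 mM MgCl2, treated with 10 μM compound for 30 min, heated for 3 min across 48°C-58°C, pooled and brought to 0.5% NP-40 at 4°C. Values are log-two fold changes in thermal stability relative to solvent controls, from duplicates.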

[2] = compound: CN1CCc2c(c3ccccc3n2Cc2ccc(C(=O)NO)cc2)C1 [Tubastatin A]
In short: as §1

[3] = compound: CNC(=O)C1=CC=CC=C1NC2=NC(=NC=C2Cl)NC3=C(C=C(C=C3)N4CCOCC4)OC
In short: as §1

[4] = compound: CNC(=O)c1ccc(Nc2ncc(C(F)(F)F)c(NCc3nccnc3N(C)S(C)(=O)=O)n2)cc1 [defactinib]
In short: as §1

[5] = compound: CNc1nc(-c2ccc3c(N)n[nH]c3c2)cc(N2C[C@@H](C(=O)NC3CCCCC3)CC[C@H]2C)n1
In short: as §1

[6] = compound: COC(=O)N[C@@H](C)CNc1nccc(-c2cn(C(C)C)nc2-c2cc(Cl)cc(NS(C)(=O)=O)c2F)n1 [encorafenib]
In short: as §1

[7] = compound: COC(=O)[C@H](CCSC)NC(=O)C1=C(C=C(C=C1)NC[C@H](CS)N)C2=CC=CC=C2
In short: as §1

[8] = compound: COc1cc(Nc2ncc3c(n2)-c2ccc(Cl)cc2C(c2c(F)cccc2OC)=NC3)ccc1C(=O)O [alisertib]
In short: as §1

[9] = compound: COc1cc2nc(-c3cc(F)ccc3O)nc(N[C@@H]3CNC[C@H]3C(C)(C)O)c2cc1OC
In short: as §1

[10] = compound: COc1cc2ncnc(Nc3ccc(F)c(Cl)c3)c2cc1OCCCN1CCOCC1 [gefitinib]
In short: as §1

Measured: log2 fold change

XPC (UniProt Q01831)
inactive: [1] 0.004 | [2] -0.04 | [3] -0.023 | [4] 0.046 | [5] 0.001 | [6] 0.068 | [7] 0.029 | [8] 0 | [9] 0.066 | [10] 0.039

XAB2 (UniProt Q9HCS7)
inactive: [1] -0.003 | [2] -0.039 | [3] 0.012 | [4] 0.008 | [5] 0.014 | [6] -0.045 | [7] 0.2 | [8] -0.017 | [9] 0.025 | [10] 0.046

WASHC2C (UniProt Q9Y4E1)
inactive: [1] -0.038 | [2] 0.022 | [3] 0.015 | [4] 0.021 | [5] 0.027 | [6] 0.002 | [7] -0.074 | [8] 0.056 | [9] 0.035 | [10] -0.015

WIPF2 (UniProt Q8TF74)
inactive: [1] -0.024 | [2] -0.018 | [3] 0.002 | [4] -0.02 | [5] -0.08 | [6] -0.032 | [7] -0.022 | [8] 0.076 | [9] 0 | [10] 0.068

VPS51 (UniProt Q9UID3)
inactive: [1] 0.052 | [2] -0.008 | [3] 0.017 | [4] 0.028 | [5] -0.015 | [6] 0.018 | [7] 0.015 | [8] 0 | [9] -0.001 | [10] 0.027

WDR45 isoform 2 (UniProt Q9Y484)
inactive: [1] -0.065 | [2] -0.067 | [3] -0.001 | [4] 0.013 | [5] -0.059 | [6] -0.042 | [7] -0.051 | [8] 0.021 | [9] -0.008 | [10] 0.037

Reprinted at random: two entries already listed
XAB2 (UniProt Q9HCS7)
inactive: [1] -0.003 | [2] -0.039 | [3] 0.012 | [4] 0.008 | [5] 0.014 | [6] -0.045 | [7] 0.2 | [8] -0.017 | [9] 0.025 | [10] 0.046

WIPF2 (UniProt Q8TF74)
inactive: [1] -0.024 | [2] -0.018 | [3] 0.002 | [4] -0.02 | [5] -0.08 | [6] -0.032 | [7] -0.022 | [8] 0.076 | [9] 0 | [10] 0.068

The listing continues:

WDR33 (UniProt Q9C0J8)
inactive: [1] 0.003 | [2] -0.072 | [3] -0.017 | [4] 0.048 | [5] 0.015 | [6] -0.012 | [7] 0.084 | [8] -0.012 | [9] 0.002 | [10] 0.001

WDHD1 (UniProt O75717)
inactive: [1] 0.042 | [2] -0.073 | [3] 0.004 | [4] -0.002 | [5] -0.011 | [6] -0.019 | [7] 0.098 | [8] -0.016 | [9] -0.003 | [10] 0.015

WASF2 (UniProt Q9Y6W5)
inactive: [1] 0.014 | [2] -0.016 | [3] -0.006 | [4] 0.003 | [5] -0.021 | [6] 0.017 | [7] -0.097 | [8] -0.012 | [9] -0.01 | [10] 0.006

WDCP (UniProt Q9H6R7)
inactive: [1] 0.019 | [2] -0.138 | [3] 0.025 | [4] 0.005 | [5] 0.032 | [6] 0.024 | [7] -0.019 | [8] 0.01 | [9] 0.062 | [10] -0.017

WDR45B (UniProt Q5MNZ6)
inactive: [1] -0.073 | [2] -0.03 | [3] 0.035 | [4] -0.018 | [5] 0.023 | [6] -0.031 | [7] -0.004 | [8] -0.035 | [9] 0.006 | [10] 0.069

WDR75 (UniProt Q8IWA0)
inactive: [1] -0.061 | [2] -0.115 | [3] 0.026 | [4] -0.035 | [5] -0.031 | [6] 0.038 | [7] 0.028 | [8] 0.08 | [9] -0.078 | [10] -0.079

WBP2 (UniProt Q969T9)
inactive: [1] 0.035 | [2] 0.039 | [3] -0.007 | [4] 0.056 | [5] 0.035 | [6] -0.005 | [7] -0.076 | [8] -0.023 | [9] -0.014 | [10] 0.03

VPS16 (UniProt Q9H269)
inactive: [1] 0.032 | [2] -0.082 | [3] 0.002 | [4] -0.006 | [5] 0 | [6] 0.049 | [7] -0.069 | [8] 0.031 | [9] -0.004 | [10] 0.013

WBP4 (UniProt O75554)
inactive: [1] 0.019 | [2] 0.038 | [3] -0.011 | [4] 0.018 | [5] 0.021 | [6] 0.005 | [7] -0.024 | [8] -0.029 | [9] 0.004 | [10] -0.047

VPS54 (UniProt Q9P1Q0)
inactive: [1] -0.07 | [2] 0 | [3] 0.059 | [4] -0.07 | [5] 0.013 | [6] -0.001 | [7] 0.105 | [8] -0.024 | [9] 0.071 | [10] 0.089

VPS13C (UniProt Q709C8)
inactive: [1] 0.008 | [2] 0.034 | [3] 0.002 | [4] 0.014 | [5] 0.023 | [6] 0.192 | [7] -0.131 | [8] 0.111 | [9] 0.157 | [10] 0.131

WDR4 (UniProt P57081)
inactive: [1] -0.012 | [2] -0.035 | [3] 0.032 | [4] -0.027 | [5] 0.005 | [6] 0.046 | [7] -0.1 | [8] 0.001 | [9] 0.007 | [10] -0.008

WDR6 (UniProt Q9NNW5)
inactive: [1] -0.009 | [2] -0.077 | [3] -0.004 | [4] 0.003 | [5] -0.011 | [6] 0.015 | [7] 0.031 | [8] 0.005 | [9] 0.016 | [10] -0.013

WDR55 (UniProt Q9H6Y2)
inactive: [1] -0.005 | [2] -0.033 | [3] 0.011 | [4] -0.037 | [5] 0.018 | [6] -0.002 | [7] 0.074 | [8] 0.029 | [9] 0.028 | [10] 0.075

VPS52 (UniProt Q8N1B4)
inactive: [1] -0.016 | [2] -0.019 | [3] -0.01 | [4] 0.02 | [5] -0.034 | [6] 0.046 | [7] 0.006 | [8] 0.028 | [9] -0.009 | [10] -0.013

XPA (UniProt P23025)
inactive: [1] -0.016 | [2] 0.043 | [3] 0.017 | [4] 0.031 | [5] 0.075 | [6] 0.006 | [7] -0.067 | [8] 0.01 | [9] -0.099 | [10] -0.07

WDR1 (UniProt O75083)
inactive: [1] 0.047 | [2] 0.016 | [3] -0.029 | [4] -0.008 | [5] -0.027 | [6] -0.025 | [7] 0.053 | [8] 0.005 | [9] -0.005 | [10] -0.038

VPS33A (UniProt Q96AX1)
inactive: [1] -0.01 | [2] -0.077 | [3] 0.033 | [4] 0.012 | [5] -0.011 | [6] 0.028 | [7] -0.044 | [8] 0.021 | [9] -0.022 | [10] 0.027

WDR26, A0A499FIZ0
inactive: [1] 0.012 | [2] -0.064 | [3] 0.002 | [4] -0.011 | [5] -0.129 | [6] 0.018 | [7] 0.014 | [8] -0.023 | [9] 0.014 | [10] 0.038

VKORC1 (UniProt Q9BQB6)
inactive: [1] 0 | [2] -0.001 | [3] -0.048 | [4] 0.023 | [5] 0.108 | [6] 0.023 | [7] -0.006 | [8] 0.034 | [9] -0.016 | [10] 0.002

VPS28 (UniProt Q9UK41)
inactive: [1] -0.018 | [2] -0.034 | [3] 0 | [4] -0.018 | [5] -0.078 | [6] 0.046 | [7] 0.012 | [8] -0.022 | [9] 0 | [10] 0.034

WASHC4 (UniProt Q2M389)
inactive: [1] -0.005 | [2] 0 | [3] 0.013 | [4] 0.027 | [5] -0.03 | [6] -0.004 | [7] -0.012 | [8] 0.003 | [9] -0.018 | [10] -0.01

WWOX (UniProt Q9NZC7)
inactive: [1] 0.159 | [2] 0.056 | [4] -0.148 | [5] -0.081

WDR19 (UniProt Q8NEZ3)
inactive: [1] -0.028 | [8] 0.09 | [9] 0.071 | [10] -0.046

2 neighbouring entries from above:
WWOX (UniProt Q9NZC7)
inactive: [1] 0.159 | [2] 0.056 | [4] -0.148 | [5] -0.081

WDR19 (UniProt Q8NEZ3)
inactive: [1] -0.028 | [8] 0.09 | [9] 0.071 | [10] -0.046
